B1: PDXK (protein, UniProt O00764 1-312, looked up)
Pyridoxal kinase: MEEECRVLSIQSHVIRGYVGNRAATFPLQVLGFEIDAVNSVQFSNHTGYAHWKGQVLNSDELQELYEGLRLNNMNKYDYVLTGYTRDKSFLAMVVDIVQELKQQNPRLVYVCDPVLGDKWDGEGSMYVPEDLLPVYKEKVVPLADIITPNQFEAELLSGRKIHSQEEALRVMDMLHSMGPDTVVITSSDLPSPQGSNYLIVLGSQRRRNPAGSVVMERIRMDIRKVDAVFVGTGDLFAAMLLAWTHKHPNNLKVACEKTVSTLHHVLQRTIQCAKAQAGEGVRPSPMQLELRMVQSKRDIEDPEIVVQATVL
B2: GITR (protein, UniProt Q9Y5U5 26-241, looked up)
Tumor necrosis factor …: QRPTGGPGCGPGRLLLGTGTDARCCRVHTTRCCRDYPGEECCSEWDCMCVQPEFHCGDPCCTTCRHHPCPPGQGVQSQGKFSFGFQCIDCASGTFSGGHEGHCKPWTDCTQFGFLTVFPGNKTHNAVCVPGSPPAEPLGWLTVVLLAVAACVLLLTSAQLGLHIWQLRSQCMWPRETQLLLEVPPSTEDARSCQFPEEERGERSAEEKGRLGDLWV
B3: Troponin I, skeletal, fast twitch (protein, UniProt P48788 2-182, looked up)
Troponin I, fast skeletal …: GDEEKRNRAITARRQHLKSVMLQIAATELEKEESRREAEKQNYLAEHCPPLHIPGSMSEVQELCKQLHAKIDAAEEEKYDMEVRVQKTSKELEDMNQKLFDLRGKFKRPPLRRVRMSADAMLKALLGSKHKVCMDLRANLKQVKKEDTEKERDLRDVGDWRKNIEEKSGMEGRKKMFESES
B4: Cathepsin H (protein, UniProt P09668 116-335, looked up)
Cathepsin H: YPPSVDWRKKGNFVSPVKNQGACGSCWTFSTTGALESAIAIATGKMLSLAEQQLVDCAQDFNNHGCQGGLPSQAFEYILYNKGIMGEDTYPYQGKDGYCKFQPGKAIGFVKDVANITIYDEEAMVEAVALYNPVSFAFEVTQDFMMYRTGIYSSTSCHKTPDKVNHAVLAVGYGEKNGIPYWIVKNSWGPQWGMNGYFLIERGKNMCGLAACASYPIPLV
B5: Cystatin-S (protein, UniProt P01036 21-141, looked up)
Cystatin-S: SSSKEENRIIPGGIYDADLNDEWVQRALHFAISEYNKATEDEYYRRPLQVLRAREQTFGGVNYFFDVEVGRTICTKSQPNLDTCAFHEQPELQKKQLCSFEIYEVPWEDRMSLVNSRCQEA
B6: DcR3 (protein, UniProt O95407 30-300, looked up)
Tumor necrosis factor …: VAETPTYPWRDAETGERLVCAQCPPGTFVQRPCRRDSPTTCGPCPPRHYTQFWNYLERCRYCNVLCGEREEEARACHATHNRACRCRTGFFAHAGFCLEHASCPPGAGVIAPGTPSQNTQCQPCPPGTFSASSSSSEQCQPHRNCTALGLALNVPGSSSHDTLCTSCTGFPLSTRVPGAEECERAVIDFVAFQDISIKRLQRLLQALEAPEGWGPTPRAGRAALQLKLRRRLTELLGAQDGALLVRLLQALRVARMPGLERSVRERFLPVH
B7: ARGI1 (protein, UniProt P05089 1-322, looked up)
Arginase-1: MSAKSRTIGIIGAPFSKGQPRGGVEEGPTVLRKAGLLEKLKEQECDVKDYGDLPFADIPNDSPFQIVKNPRSVGKASEQLAGKVAEVKKNGRISLVLGGDHSLAIGSISGHARVHPDLGVIWVDAHTDINTPLTTTSGNLHGQPVSFLLKELKGKIPDVPGFSWVTPCISAKDIVYIGLRDVDPGEHYILKTLGIKYFSMTEVDRLGIGKVMEETLSYLLGRKKRPIHLSFDVDGLDPSFTPATGTPVVGGLTYREGLYITEEIYKTGLLSGLDIMEVNPSLGKTPEEVTRTVNTAVAITLACFGLAREGNHKPIDYLNPPK
B8: SP-D (protein, UniProt P35247 21-375, looked up)
Pulmonary …: AEMKTYSHRTMPSACTLVMCSSVESGLPGRDGRDGREGPRGEKGDPGLPGAAGQAGMPGQAGPVGPKGDNGSVGEPGPKGDTGPSGPPGPPGVPGPAGREGPLGKQGNIGPQGKPGPKGEAGPKGEVGAPGMQGSAGARGLAGPKGERGVPGERGVPGNTGAAGSAGAMGPQGSPGARGPPGLKGDKGIPGDKGAKGESGLPDVASLRQQVEALQGQVQHLQAAFSQYKKVELFPNGQSVGEKIFKTAGFVKPFTEAQLLCTQAGGQLASPRSAAENAALQQLVVAKNEAAFLSMTDSKTEGKFTYPTGESLVYSNWAPGEPNDDGGSEDCVEIFTNGKWNDRACGEKRLVVCEF
B9: Proteinase-3 (protein, UniProt P24158 28-248, looked up)
Myeloblastin: IVGGHEAQPHSRPYMASLQMRGNPGSHFCGGTLIHPSFVLTAAHCLRDIPQRLVNVVLGAHNVRTQEPTQQHFSVAQVFLNNYDAENKLNDVLLIQLSSPANLSASVATVQLPQQDQPVPHGTQCLAMGWGRVGAHDPPAQVLQELNVTVVTFFCRPHNICTFVPRRKAGICFGDSGGPLICDGIIQGIDSFVIWGCATRLFPDFFTRVALYVDWIRSTLR
B10: GNS (protein, UniProt P15586 37-552, looked up)
N-acetylglucosamine-6-sulfatas …: VFGVAAGTRRPNVVLLLTDDQDEVLGGMTPLKKTKALIGEMGMTFSSAYVPSALCCPSRASILTGKYPHNHHVVNNTLEGNCSSKSWQKIQEPNTFPAILRSMCGYQTFFAGKYLNEYGAPDAGGLEHVPLGWSYWYALEKNSKYYNYTLSINGKARKHGENYSVDYLTDVLANVSLDFLDYKSNFEPFFMMIATPAPHSPWTAAPQYQKAFQNVFAPRNKNFNIHGTNKHWLIRQAKTPMTNSSIQFLDNAFRKRWQTLLSVDDLVEKLVKRLEFTGELNNTYIFYTSDNGYHTGQFSLPIDKRQLYEFDIKVPLLVRGPGIKPNQTSKMLVANIDLGPTILDIAGYDLNKTQMDGMSLLPILRGASNLTWRSDVLVEYQGEGRNVTDPTCPSLSPGVSQCFPDCVCEDAYNNTYACVRTMSALWNLQYCEFDDQEVFVEVYNLTADPDQITNIAKTIDPELLGKMNYRLMMLQSCSGPTCRTPGVFDPGYRFDPRLMFSNRGSVRTRRFSKHLL
B11: BPI (protein, UniProt P17213 32-487, looked up)
Bactericidal …: VNPGVVVRISQKGLDYASQQGTAALQKELKRIKIPDYSDSFKIKHLGKGHYSFYSMDIREFQLPSSQISMVPNVGLKFSISNANIKISGKWKAQKRFLKMSGNFDLSIEGMSISADLKLGSNPTSGKPTITCSSCSSHINSVHVHISKSKVGWLIQLFHKKIESALRNKMNSQVCEKVTNSVSSELQPYFQTLPVMTKIDSVAGINYGLVAPPATTAETLDVQMKGEFYSENHHNPPPFAPPVMEFPAAHDRMVYLGLSDYFFNTAGLVYQEAGVLKMTLRDDMIPKESKFRLTTKFFGTFLPEVAKKFPNMKIQIHVSASTPPHLSVQPTGLTFYPAVDVQAFAVLPNSSLASLFLIGMHTTGSMEVSAESNRLVGELKLDRLLLELKHSNIGPFPVELLQDIMNYIVPILVLPRVNEKLQKGFPLPTPARVQLYNVVLQPHQNFLLFGADVVYK
B12: JAM-B (protein, UniProt P57087 29-298, looked up)
Junctional adhesion molecule B: FSAPKDQQVVTAVEYQEAILACKTPKKTVSSRLEWKKLGRSVSFVYYQQTLQGDFKNRAEMIDFNIRIKNVTRSDAGKYRCEVSAPSEQGQNLEEDTVTLEVLVAPAVPSCEVPSSALSGTVVELRCQDKEGNPAPEYTWFKDGIRLLENPRLGSQSTNSSYTMNTKTGTLQFNTVSKLDTGEYSCEARNSVGYRRCPGKRMQVDDLNISGIIAAVVVVALVISVCGLGVCYAQRKGYFSKETSFQKSNSSSKATTMSENDFKHTKSFII
B13: S100A7 (protein, UniProt P31151 2-101, looked up)
Protein S100-A7: SNTQAERSIIGMIDMFHKYTRRDDKIEKPSLLTMMKENFPNFLSACDKKGTNYLADVFEKKDKNEDKKIDFSEFLSLLGDIATDYHKQSHGAAPCSGGSQ
B14: SLIK1 (protein, UniProt Q96PX8 18-696, looked up)
SLIT and NTRK-like protein 1: NVTGDVCKEKICSCNEIEGDLHVDCEKKGFTSLQRFTAPTSQFYHLFLHGNSLTRLFPNEFANFYNAVSLHMENNGLHEIVPGAFLGLQLVKRLHINNNKIKSFRKQTFLGLDDLEYLQADFNLLRDIDPGAFQDLNKLEVLILNDNLISTLPANVFQYVPITHLDLRGNRLKTLPYEEVLEQIPGIAEILLEDNPWDCTCDLLSLKEWLENIPKNALIGRVVCEAPTRLQGKDLNETTEQDLCPLKNRVDSSLPAPPAQEETFAPGPLPTPFKTNGQEDHATPGSAPNGGTKIPGNWQIKIRPTAAIATGSSRNKPLANSLPCPGGCSCDHIPGSGLKMNCNNRNVSSLADLKPKLSNVQELFLRDNKIHSIRKSHFVDYKNLILLDLGNNNIATVENNTFKNLLDLRWLYMDSNYLDTLSREKFAGLQNLEYLNVEYNAIQLILPGTFNAMPKLRILILNNNLLRSLPVDVFAGVSLSKLSLHNNYFMYLPVAGVLDQLTSIIQIDLHGNPWECSCTIVPFKQWAERLGSEVLMSDLKCETPVNFFRKDFMLLSNDEICPQLYARISPTLTSHSKNSTGLAETGTHSNSYLDTSRVSISVLVPGLLLVFVTSAFTVVGMLVFILRNRKRSKRRDANSSASEINSLQTVCDSSYWHNGPYNADGAHRVYDCGSHSLSD
B15: annexin I (protein, UniProt P04083 2-346, looked up)
Annexin A1: AMVSEFLKQAWFIENEEQEYVQTVKSSKGGPGSAVSPYPTFNPSSDVAALHKAIMVKGVDEATIIDILTKRNNAQRQQIKAAYLQETGKPLDETLKKALTGHLEEVVLALLKTPAQFDADELRAAMKGLGTDEDTLIEILASRTNKEIRDINRVYREELKRDLAKDITSDTSGDFRNALLSLAKGDRSEDFGVNEDLADSDARALYEAGERRKGTDVNVFNTILTTRSYPQLRRVFQKYTKYSKHDMNKVLDLELKGDIEKCLTAIVKCATSKPAFFAEKLHQAMKGVGTRHKALIRIMVSRSEIDMNDIKAFYQKMYGISLCQAILDETKGDYEKILVALCGGN

One data set is described as follows: SOMAscan serum proteomics in NASH subjects treated with selonsertib/simtuzumab, baseline and week 24. The following applies: serum protein marker level; CRN fibrosis stage improvers; week 24 vs baseline. On the set-up: species or system human.
Consider B1, for which the “Median percent CHG at W24 in improver” value is −13.7%.

Take B2: the “Median percent CHG at W24 in improver” value is given as −7.67%.

As to B3, the “Median percent CHG at W24 in improver” value is −1.77%.

As for B4, the “Median percent CHG at W24 in improver” value is on record as −13.86%.

As for B5, the “Median percent CHG at W24 in improver” value came out at 3.35%.

With B6, the “Median percent CHG at W24 in improver” value was 1.1%.

The data set is the same for the next values; noted with them: serum protein marker level; CRN fibrosis stage non-improvers; week 24 vs baseline.
For the molecule B1, the “Median percent CHG at W24 in Non-improver” value is given as −2.82%.

As for B2, the “Median percent CHG at W24 in Non-improver” value was −1.84%.

As for B3, the “Median percent CHG at W24 in Non-improver” value worked out at 6.48%.

For the molecule B4, the “Median percent CHG at W24 in Non-improver” value is −3.02%.

B5: the “Median percent CHG at W24 in Non-improver” value is on record as −1.78%.

As for B6, the “Median percent CHG at W24 in Non-improver” value was −2.01%.

Staying with this data set, now noted: serum protein marker level; hepatic ballooning improvers; week 24 vs baseline.
On to B7, for which the “Median percent CHG at W24 in improver” value is given as −19.27%.

In the case of B8, the “Median percent CHG at W24 in improver” value is reported as −30.86%.

As for B9, the “Median percent CHG at W24 in improver” value was −26.62%.

As to B10, the “Median percent CHG at W24 in improver” value is reported as −6.64%.

Turning to B11, the “Median percent CHG at W24 in improver” value is −39.76%.

For the molecule B12, the “Median percent CHG at W24 in improver” value stood at 6.48%.

In the case of B13, the “Median percent CHG at W24 in improver” value was −1.99%.

Turning to B14, the “Median percent CHG at W24 in improver” value came to 5.51%.

With B15, the “Median percent CHG at W24 in improver” value is listed as −12.32%.

Still in this data set, the particulars now being: serum protein marker level; hepatic ballooning non-improvers; week 24 vs baseline.
For B7, the “Median percent CHG at W24 in Non-improver” value was −6.98%.

Turning to B8, the “Median percent CHG at W24 in Non-improver” value is listed as −7.39%.

Regarding B9, the “Median percent CHG at W24 in Non-improver” value was −14.585%.

As for B10, the “Median percent CHG at W24 in Non-improver” value is listed as 3.03%.

For B11, the “Median percent CHG at W24 in Non-improver” value was −20.905%.

B12: the “Median percent CHG at W24 in Non-improver” value was −0.86%.

For the molecule B13, the “Median percent CHG at W24 in Non-improver” value is reported as 1.06%.

B14: the “Median percent CHG at W24 in Non-improver” value is listed as −0.975%.

Regarding B15, the “Median percent CHG at W24 in Non-improver” value is 2.89%.

The record behind these values is patent US20200340060A1, “COMPOSITIONS AND METHODS FOR IDENTIFYING AND TREATING LIVER DISEASES AND MONITORING TREATMENT OUTCOMES” (Gilead Sciences, Inc., priority 2017, published 2020).
